Reference: PubChem BioAssay (NCATS)
Inconclusive results, whose numbers are uncertain, are shown with a selection of clear calls. For some assays here: Where the call is inconclusive, the potency comes from a doubtful curve fit. The source made the active and inactive calls. Calls follow the shape of the dose curve; as a rule, active = well fitted curve in the direction sought with a large enough effect; inconclusive = small, poorly fitted or top-dose-only effect, or another doubt; inactive = no such curve, though single readings can be large; an effect the other way counts as inactive or inconclusive.

Columns and labels:
[1] = Quantitative High-Throughput drug screen in 47 multiple myeloma cell lines against the NCATS MIPE library collection: MOLP8_DSMZ cell viability assay (AID 1918977); also: nearly all actives have a fitted effect of over 45% in size;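 as to viability (% of control): 100% = DMSO-only wells and 0% = media-only wells without cells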
In short: (§1)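 Readout: median RLU from CellTiter-Glo after 5 min at room temperature. Preceding step was 48 h drug treatment of 500 cells/well at 37 °C, 5% CO2, with DMSO-only and media-only control wells.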

[2] = Quantitative High-Throughput drug screen in 47 multiple myeloma cell lines against the NCATS MIPE library collection: OCIMY1_PLB cell viability assay (AID 1918979); also: nearly all actives have a fitted effect of over 35% in size
In short: as §1

[3] = Quantitative High-Throughput drug screen in 47 multiple myeloma cell lines against the NCATS MIPE library collection: MM1S_ATCC cell viability assay (AID 1918980); also: nearly all actives have a fitted effect of over 45% in size
In short: as §1

[4] = Quantitative High-Throughput drug screen in 47 multiple myeloma cell lines against the NCATS MIPE library collection: MM1R_ATCC cell viability assay (AID 1918981); also: nearly all actives have a fitted effect of over 35% in size
In short: as §1

[5] = Quantitative High-Throughput drug screen in 47 multiple myeloma cell lines against the NCATS MIPE library collection: LP1_DSMZ cell viability assay (AID 1918982); also: nearly all actives have a fitted effect of over 35% in size
In short: as §1

[6] = Quantitative High-Throughput drug screen in 47 multiple myeloma cell lines against the NCATS MIPE library collection: KMS28PE_JCRB cell viability assay (AID 1918983); also: nearly all actives have a fitted effect of over 35% in size
In short: as §1

[7] = Quantitative High-Throughput drug screen in 47 multiple myeloma cell lines against the NCATS MIPE library collection: L363_DSMZ cell viability assay (AID 1918984); settings: L363 myeloma viability, CellTiter-Glo ATP luminescence, 48 h; viability (% of control): at 45.8 µM (top of the series); also: nearly all actives have a fitted effect of over 40% in size
In short: as §1

[8] = Quantitative High-Throughput drug screen in 47 multiple myeloma cell lines against the NCATS MIPE library collection: KMS34_JCRB cell viability assay (AID 1918985); settings: KMS34 myeloma viability, CellTiter-Glo ATP luminescence, 48 h; viability, percent of control: at 45.8 µM; also: nearly all actives have a fitted effect of over 40% in size;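 as to viability, percent of control: 100% = DMSO-only wells and 0% = media-only wells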
In short: as §1

[9] = Quantitative High-Throughput drug screen in 47 multiple myeloma cell lines against the NCATS MIPE library collection: OCIMY7_PLB cell viability assay (AID 1918987); settings: OCI-MY7 myeloma viability, CellTiter-Glo ATP, 48 h; viability (% of DMSO): at 45.8 µM unless noted; also: nearly all actives have a fitted effect of over 65% in size
In short: as §1

[10] = Quantitative High-Throughput drug screen in 47 multiple myeloma cell lines against the NCATS MIPE library collection: OCIMY5_PLB cell viability assay (AID 1918988); settings: OCI-MY5 myeloma viability, ATP luminescence, 48 h; viability, % of control: at 45.8 µM; also: nearly all actives have a fitted effect of over 65% in size
In short: as §1

[11] = Quantitative High-Throughput drug screen in 47 multiple myeloma cell lines against the NCATS MIPE library collection: SKMM1_PLB cell viability assay (AID 1919863); settings: SKMM1 myeloma viability, CellTiter-Glo ATP, 48 h; viability: stronger effect = lower value; also: nearly all actives have a fitted effect of over 35% in size
In short: as §1

[12] = Quantitative High-Throughput drug screen in 47 multiple myeloma cell lines against the NCATS MIPE library collection: U266_ATCC cell viability assay (AID 1919864); also: nearly all actives have a fitted effect of over 35% in size;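 as to viability (% of DMSO control): 0% = media-only wells without cells and 100% = DMSO-only wells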
In short: as §1

[13] = Quantitative High-Throughput drug screen in 47 multiple myeloma cell lines against the NCATS MIPE library collection: XG6_PLB cell viability assay (AID 1919865); settings: XG6 myeloma viability, CellTiter-Glo ATP luminescence, 48 h; viability (% of control): at 45.8 µM; also: nearly all actives have a fitted effect of over 40% in size
In short: as §1

[14] = Quantitative High-Throughput drug screen in 47 multiple myeloma cell lines against the NCATS MIPE library collection: VP6_DJ cell viability assay (AID 1919867); settings: ATP luminescence, 48 h; viability (% of DMSO): at 45.8 µM; also: nearly all actives have a fitted effect of over 40% in size
In short: as §1

[15] = Quantitative High-Throughput drug screen in 47 multiple myeloma cell lines against the NCATS MIPE library collection: PE2_PLB cell viability assay (AID 1919869); settings: PE2_PLB myeloma cells viability, ATP luminescence, 48 h; viability (% of control): at 45.8 µM; also: nearly all actives have a fitted effect of over 35% in size;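 as to viability (% of control): 100% = DMSO-only wells and 0% = cell-free media-only wells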
In short: as §1

[16] = Quantitative High-Throughput drug screen in 47 multiple myeloma cell lines against the NCATS MIPE library collection: NCIH929_DSMZ cell viability assay (AID 1918978); settings: NCI-H929 myeloma viability, CellTiter-Glo ATP, 48 h; viability, % of control: at 45.8 µM; also: nearly all actives have a fitted effect of over 35% in size
In short: as §1

[17] = Quantitative High-Throughput drug screen in 47 multiple myeloma cell lines against the NCATS MIPE library collection: OPM1_PLB cell viability assay (AID 1918989); settings: CellTiter-Glo, 48 h; viability (% of control): at 45.8 µM; also: nearly all actives have a fitted effect of over 40% in size
In short: as §1

[18] = Quantitative High-Throughput drug screen in 47 multiple myeloma cell lines against the NCATS MIPE library collection: UTMC2_PLB cell viability assay (AID 1919868); settings: CellTiter-Glo ATP luminescence, 48 h; viability (% of DMSO control): at 45.8 µM; also: nearly all actives have a fitted effect of over 55% in size;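 as to viability (% of DMSO control): 100% = DMSO-only wells and 0% = media-only wells without cells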
In short: as §1

[19] = Quantitative High-Throughput drug screen in 47 multiple myeloma cell lines against the NCATS MIPE library collection: XG1_PLB cell viability assay (AID 1919866); also: nearly all actives have a fitted effect of over 35% in size
In short: as §1

[20] = Quantitative High-Throughput drug screen in 47 multiple myeloma cell lines against the NCATS MIPE library collection: PCM6_Riken cell viability assay (AID 1919870); settings: CellTiter-Glo ATP, 48 h; viability (% of control): at 45.8 µM; also: nearly all actives have a fitted effect of over 30% in size
In short: as §1
Potency is read from the fitted curve at half-maximal effect.

O=c1n(CCCN2CCN(c3cccc(Cl)c3)CC2)nc2ccccn12
inactive: Potency [4] | Potency [5] | Potency [6] | Potency [7] | Potency [8] | Potency [15]
inconclusive: Potency [1] 7430 nM [rising, partial curve, poor fit] | Potency [2] 2.1 nM [rising, full curve, poor fit] | Potency [3] 1.9 nM [rising, full curve, poor fit] | Potency [9] 6.6 nM [rising, full curve, poor fit] | Potency [10] 235 nM [rising, full curve, poor fit] | Potency [11] 3720 nM [rising, partial curve, poor fit] | Potency [12] 935 nM [rising, full curve] | Potency [13] 1 nM | Potency [14] 9.3 nM [rising, full curve, poor fit]

C[C@]12C=CC(=O)N[C@@H]1CC[C@H]1[C@H]3CC[C@@H](C(=O)Nc4cc(C(F)(F)F)ccc4C(F)(F)F)[C@@]3(C)CC[C@@H]12
inconclusive: Potency [1] 33200 nM [cytotoxic, single point] | Potency [16] 13200 nM [cytotoxic, partial curve] | Potency [4] 16600 nM [cytotoxic, partial curve] | Potency [7] 10500 nM [cytotoxic, single point] | Potency [8] 16600 nM [cytotoxic, partial curve, poor fit] | Potency [17] 4690 nM [cytotoxic, partial curve, poor fit] | Potency [11] 26400 nM [cytotoxic, single point] | Potency [14] 6620 nM [cytotoxic, partial curve, poor fit] | Potency [15] 9350 nM [cytotoxic, partial curve, poor fit]
inactive: Potency [18]

CC(N[C@H]1CCCC[C@H]1NC(=O)c1ccc(Cl)cc1)c1cccc2ccccc12 (some centres undefined)
inactive: Potency [1] | Potency [6] | viability [11] 94.8% | Potency [12]
inconclusive: Potency [16] 33200 nM [cytotoxic, single point] | Potency [4] 23500 nM [cytotoxic, single point] | Potency [8] 132 nM [rising, partial curve, poor fit] | Potency [9] 59 nM [rising, full curve] | Potency [10] 8.3 nM [cytotoxic, full curve, poor fit] | Potency [13] 1180 nM [cytotoxic, full curve, poor fit] | Potency [19] 1480 nM [cytotoxic, full curve, poor fit] | Potency [14] 1480 nM [cytotoxic, full curve, poor fit] | Potency [18] 1 nM [cytotoxic] | Potency [15] 37200 nM [cytotoxic, single point] | Potency [20] 1050 nM [cytotoxic, full curve, poor fit]
active: Potency [7] 83.3 nM

C[C@H](NC(=O)C(C#N)=Cc1cccc(Br)n1)c1ccccc1
active: Potency [1] 2350 nM | Potency [2] 7430 nM | Potency [3] 8330 nM | Potency [7] 11800 nM | Potency [8] 7430 nM | Potency [9] 743 nM | Potency [11] 3720 nM | Potency [12] 6620 nM | Potency [14] 2350 nM

C[C@@H](N)C1CCC(C(=O)Nc2ccncc2)CC1 (some centres undefined)
inactive: Potency [1] | Potency [5] | viability [11] 141%
inconclusive: Potency [16] 9350 nM [cytotoxic, partial curve, poor fit] | Potency [6] 6620 nM [cytotoxic, single point] | Potency [7] 1 nM [cytotoxic] | Potency [17] 1 nM | Potency [12] 418 nM [rising, full curve] | Potency [14] 1870 nM [rising, full curve, poor fit]
active: Potency [9] 11800 nM

COc1ccc(-c2cc3c(C)nc(N)nc3n(C3CCC(OCCO)CC3)c2=O)cn1 (centres undefined)
active: Potency [1] 37.2 nM | Potency [2] 83.3 nM | Potency [3] 37.2 nM | Potency [13] 66.2 nM | Potency [19] 18.7 nM | Potency [18] 52.6 nM

CC(C)C[C@H](NC(=O)[C@H](Cc1ccccc1)NC(=O)c1cnccn1)B(O)O
active: Potency [1] 9.3 nM | Potency [5] 11.8 nM | Potency [8] 8.3 nM | Potency [11] 37.2 nM | Potency [14] 7.4 nM | Potency [18] 148 nM
inconclusive: viability, % of control [16] 3.68% [cytotoxic] | viability (% of control) [15] 6.38% [cytotoxic]
